No constants are given. Whether binding was seen depends on the method and setting. In cells and extracts the contact can be indirect. Here binding means that the protein was enriched with, or labelled near, the bait; the list need not be complete. Where a sequence is shown, tags or fusion partners need not be part of it.
Biological target: T1, Flag-DERL2 (derlin 2) (human (cDNA amplified from QBC939 cells)) (UniProt Q9GZP9)
T1 sequence: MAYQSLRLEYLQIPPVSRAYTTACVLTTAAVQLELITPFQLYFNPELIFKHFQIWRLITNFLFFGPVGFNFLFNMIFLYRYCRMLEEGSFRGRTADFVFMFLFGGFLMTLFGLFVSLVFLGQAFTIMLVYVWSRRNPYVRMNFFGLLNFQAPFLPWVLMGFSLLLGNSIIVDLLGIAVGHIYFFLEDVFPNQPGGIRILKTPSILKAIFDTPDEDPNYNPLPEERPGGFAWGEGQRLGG
Test: affinity purification with mass spectrometry; 293T cells transfected with DERL2-Flag or empty vectors; DERL2-Flag complex captured by anti-Flag antibodies; mass spectrometry

Protein sequences, listed by entry. Tags and fused reporters are not part of them.
UniProt P46379: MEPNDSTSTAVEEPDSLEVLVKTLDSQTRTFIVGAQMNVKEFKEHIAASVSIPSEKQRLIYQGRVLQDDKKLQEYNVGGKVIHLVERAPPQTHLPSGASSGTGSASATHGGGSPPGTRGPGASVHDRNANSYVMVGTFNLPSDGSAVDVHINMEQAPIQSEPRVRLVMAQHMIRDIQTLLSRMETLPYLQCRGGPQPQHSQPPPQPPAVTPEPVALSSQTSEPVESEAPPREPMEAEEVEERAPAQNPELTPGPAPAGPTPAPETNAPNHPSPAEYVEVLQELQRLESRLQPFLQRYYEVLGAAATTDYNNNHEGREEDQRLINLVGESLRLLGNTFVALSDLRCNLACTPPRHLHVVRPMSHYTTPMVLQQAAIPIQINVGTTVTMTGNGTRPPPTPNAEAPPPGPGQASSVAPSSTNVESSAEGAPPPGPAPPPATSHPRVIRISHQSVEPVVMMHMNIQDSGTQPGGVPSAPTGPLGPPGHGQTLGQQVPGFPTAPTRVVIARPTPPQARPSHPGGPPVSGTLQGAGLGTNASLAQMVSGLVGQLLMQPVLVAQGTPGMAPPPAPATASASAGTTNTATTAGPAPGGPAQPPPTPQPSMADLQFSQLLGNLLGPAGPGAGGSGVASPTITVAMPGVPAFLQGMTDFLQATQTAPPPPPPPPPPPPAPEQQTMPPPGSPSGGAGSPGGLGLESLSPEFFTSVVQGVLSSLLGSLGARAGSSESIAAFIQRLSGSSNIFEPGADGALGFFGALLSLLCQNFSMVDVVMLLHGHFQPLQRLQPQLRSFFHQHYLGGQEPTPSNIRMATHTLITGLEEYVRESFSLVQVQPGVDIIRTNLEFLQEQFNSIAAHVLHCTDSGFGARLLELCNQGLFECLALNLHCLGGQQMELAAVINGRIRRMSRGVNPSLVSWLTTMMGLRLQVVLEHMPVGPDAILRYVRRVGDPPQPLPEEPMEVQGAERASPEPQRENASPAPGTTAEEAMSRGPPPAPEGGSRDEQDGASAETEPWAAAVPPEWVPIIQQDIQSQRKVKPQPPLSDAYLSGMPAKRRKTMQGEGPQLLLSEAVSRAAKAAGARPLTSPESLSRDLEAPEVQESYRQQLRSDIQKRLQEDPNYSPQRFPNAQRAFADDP

binding: binds
Substance: BAG6 (BAG cochaperone 6), endogenous (from UniProt P46379 1-1132)
